Data as given in PubChem BioAssay AID1508597 (Cure First, 2020).

Aim: 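Survival screen with siRNA in ovarian cancer cells derived from patients, with or without rucaparib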 (primary screen)
System: human ovarian carcinoma lines grown from tumours: OCI-P5x (papillary serous) and OCI-C5x (clear cell)
Knock-down reagent: siRNA pool against human genes, 1.25 pmol siRNA per well
Duration: 72 h or 96 h, depending on the cell culture
Treatment: rucaparib 20 µM (about IC30) or vehicle, present until read-out
Rucaparib or vehicle: Vehicle
Cell line: OCI-C5x (clear cell)
Read-out: 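ATP luminescence measured at 72 or 96 h according to the culture, then normalised and expressed as percent viability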
Scale: viability, normalised: higher = more viable cells remaining
Active means: 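a well counts as a hit if its normalised viability is under 80 percent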
Calls: active = viability under 80%; inactive = viability 80% or more
Shown is an unselected part of the about 2,100 reagents, under one of the conditions tested. 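Calls flag viability under 80% in either arm, not effects specific to rucaparib; the reference for percent is not stated.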 Entries without a mark were called inactive. No sequences are given here. The record does not give: the 100% reference.

The opening 2 entries, to show the layout:
| gene | technical replicate | viability, normalised (%) |
| --- | --- | --- |
| FANCC (FA complementation group C) | 1 | 65.6 (active) |
| FANCC (FA complementation group C) | 2 | 55.1 (active) |

Main list, from the first entry:
| gene | technical replicate | viability, normalised (%) |
| --- | --- | --- |
| FANCC (FA complementation group C) | 1 | 65.6 (active) |
| FANCC (FA complementation group C) | 2 | 55.1 (active) |
| FANCC (FA complementation group C) | 3 | 68.6 (active) |
| RCOR1 (REST corepressor 1) | 1 | 35.5 (active) |
| RCOR1 (REST corepressor 1) | 2 | 30.5 (active) |
| RCOR1 (REST corepressor 1) | 3 | 34.4 (active) |
| GPX1 (glutathione peroxidase 1) | 1 | 63.4 (active) |
| GPX1 (glutathione peroxidase 1) | 2 | 60 (active) |
| GPX1 (glutathione peroxidase 1) | 3 | 62 (active) |
| IRAK3 (interleukin 1 receptor associated kinase 3) | 1 | 45.2 (active) |
| IRAK3 (interleukin 1 receptor associated kinase 3) | 2 | 54.1 (active) |
| IRAK3 (interleukin 1 receptor associated kinase 3) | 3 | 47.4 (active) |
| PHKG2 (phosphorylase kinase catalytic subunit gamma 2) | 1 | 59.6 (active) |
| PHKG2 (phosphorylase kinase catalytic subunit gamma 2) | 2 | 56.4 (active) |
| PHKG2 (phosphorylase kinase catalytic subunit gamma 2) | 3 | 66.6 (active) |
| STK32A (serine/threonine kinase 32A) | 1 | 70.5 (active) |
| STK32A (serine/threonine kinase 32A) | 2 | 56.6 (active) |
| STK32A (serine/threonine kinase 32A) | 3 | 50.6 (active) |
| RIPK3 (receptor interacting serine/threonine kinase 3) | 1 | 55.4 (active) |
| RIPK3 (receptor interacting serine/threonine kinase 3) | 2 | 54.2 (active) |
| RIPK3 (receptor interacting serine/threonine kinase 3) | 3 | 44.6 (active) |
| STK11 (serine/threonine kinase 11) | 1 | 45.4 (active) |
| STK11 (serine/threonine kinase 11) | 2 | 40.5 (active) |
| STK11 (serine/threonine kinase 11) | 3 | 43.6 (active) |
